According to US5244883A (The Administrators of the Tulane Educational Fund, priority 1990, dated 1993):

Assay: general procedure: Boc solid-phase peptide synthesis; benzhydrylamine (BHA) resin or chloromethylated polystyrene resin 1% cross-linked with divinylbenzene; DIC
Details: cyclisation step, analytical HPLC

Phe-Glu-Trp-Ala-Val-Gly-His-Leu-psi -Tpi-NH2
final HPLC purity: >95%
